Experimental data published in the supplement of paper PMC6411743.
± gives the standard deviation of the averaged measurements. The list shows a part of the results.

Chains of the proteins cited; added tags and fusions are not shown. Lines headed by an entry give the natural chain unless they say otherwise; changes in a name come on top.
UniProt P56159: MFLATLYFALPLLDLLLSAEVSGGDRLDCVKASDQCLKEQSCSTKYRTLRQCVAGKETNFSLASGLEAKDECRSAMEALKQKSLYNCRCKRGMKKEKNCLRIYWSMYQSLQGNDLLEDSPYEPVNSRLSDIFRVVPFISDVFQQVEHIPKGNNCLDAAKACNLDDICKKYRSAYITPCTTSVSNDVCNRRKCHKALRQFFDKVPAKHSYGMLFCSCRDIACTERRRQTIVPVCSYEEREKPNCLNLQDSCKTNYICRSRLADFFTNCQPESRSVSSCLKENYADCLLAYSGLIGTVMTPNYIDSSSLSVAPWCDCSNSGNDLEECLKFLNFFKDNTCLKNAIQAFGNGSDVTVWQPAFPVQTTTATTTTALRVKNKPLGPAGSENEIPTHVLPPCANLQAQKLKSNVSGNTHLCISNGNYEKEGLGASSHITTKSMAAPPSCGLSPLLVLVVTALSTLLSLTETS
UniProt P60520, whole entry: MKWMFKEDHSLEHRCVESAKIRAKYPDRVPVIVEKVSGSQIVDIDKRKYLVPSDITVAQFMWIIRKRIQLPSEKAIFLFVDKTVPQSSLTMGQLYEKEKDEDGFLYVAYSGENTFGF
UniProt P51692: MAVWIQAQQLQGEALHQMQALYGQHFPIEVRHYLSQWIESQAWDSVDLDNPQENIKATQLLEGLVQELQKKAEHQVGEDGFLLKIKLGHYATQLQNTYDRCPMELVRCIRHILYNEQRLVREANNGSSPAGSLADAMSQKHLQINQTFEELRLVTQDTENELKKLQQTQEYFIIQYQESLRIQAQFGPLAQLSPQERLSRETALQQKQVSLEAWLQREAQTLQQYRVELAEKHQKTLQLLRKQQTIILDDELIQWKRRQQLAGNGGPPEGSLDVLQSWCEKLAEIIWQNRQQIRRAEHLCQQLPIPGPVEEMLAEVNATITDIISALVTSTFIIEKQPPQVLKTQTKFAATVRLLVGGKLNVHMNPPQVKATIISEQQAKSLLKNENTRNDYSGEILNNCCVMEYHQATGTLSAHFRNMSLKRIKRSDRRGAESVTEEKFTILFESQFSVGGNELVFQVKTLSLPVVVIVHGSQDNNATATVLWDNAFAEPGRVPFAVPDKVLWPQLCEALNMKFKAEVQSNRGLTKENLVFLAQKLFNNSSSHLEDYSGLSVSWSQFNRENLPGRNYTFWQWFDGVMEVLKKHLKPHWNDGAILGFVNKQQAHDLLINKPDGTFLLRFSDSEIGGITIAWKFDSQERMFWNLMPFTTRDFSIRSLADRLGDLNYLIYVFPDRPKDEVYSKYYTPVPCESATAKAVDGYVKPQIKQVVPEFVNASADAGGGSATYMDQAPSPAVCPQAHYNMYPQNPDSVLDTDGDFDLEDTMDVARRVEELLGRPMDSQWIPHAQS
UniProt P52732: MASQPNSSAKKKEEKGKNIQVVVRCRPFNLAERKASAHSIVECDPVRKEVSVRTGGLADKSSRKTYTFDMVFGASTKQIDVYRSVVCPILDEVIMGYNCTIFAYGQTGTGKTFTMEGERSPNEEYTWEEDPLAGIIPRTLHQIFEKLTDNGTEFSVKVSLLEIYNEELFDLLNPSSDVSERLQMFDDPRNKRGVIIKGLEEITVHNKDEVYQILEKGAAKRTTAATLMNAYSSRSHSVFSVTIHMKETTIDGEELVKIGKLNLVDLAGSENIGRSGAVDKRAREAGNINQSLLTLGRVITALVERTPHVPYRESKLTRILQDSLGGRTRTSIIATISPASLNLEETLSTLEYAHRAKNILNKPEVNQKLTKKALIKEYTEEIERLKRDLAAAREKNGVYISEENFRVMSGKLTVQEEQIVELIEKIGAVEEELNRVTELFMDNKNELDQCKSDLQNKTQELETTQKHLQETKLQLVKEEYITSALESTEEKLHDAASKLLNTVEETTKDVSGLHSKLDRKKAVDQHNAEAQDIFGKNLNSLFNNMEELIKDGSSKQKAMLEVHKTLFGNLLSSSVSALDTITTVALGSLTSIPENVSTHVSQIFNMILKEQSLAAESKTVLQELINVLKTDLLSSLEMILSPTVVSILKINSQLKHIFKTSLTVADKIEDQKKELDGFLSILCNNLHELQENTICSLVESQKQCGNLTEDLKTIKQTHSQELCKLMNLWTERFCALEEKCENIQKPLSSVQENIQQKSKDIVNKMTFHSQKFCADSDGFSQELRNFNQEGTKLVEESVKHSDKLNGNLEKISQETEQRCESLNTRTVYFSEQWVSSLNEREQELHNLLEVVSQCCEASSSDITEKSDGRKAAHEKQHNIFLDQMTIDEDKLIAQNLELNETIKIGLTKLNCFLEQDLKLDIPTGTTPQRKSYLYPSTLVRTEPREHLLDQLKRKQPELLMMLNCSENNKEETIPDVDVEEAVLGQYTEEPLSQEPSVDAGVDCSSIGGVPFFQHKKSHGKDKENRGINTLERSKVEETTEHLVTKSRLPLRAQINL
UniProt P51665: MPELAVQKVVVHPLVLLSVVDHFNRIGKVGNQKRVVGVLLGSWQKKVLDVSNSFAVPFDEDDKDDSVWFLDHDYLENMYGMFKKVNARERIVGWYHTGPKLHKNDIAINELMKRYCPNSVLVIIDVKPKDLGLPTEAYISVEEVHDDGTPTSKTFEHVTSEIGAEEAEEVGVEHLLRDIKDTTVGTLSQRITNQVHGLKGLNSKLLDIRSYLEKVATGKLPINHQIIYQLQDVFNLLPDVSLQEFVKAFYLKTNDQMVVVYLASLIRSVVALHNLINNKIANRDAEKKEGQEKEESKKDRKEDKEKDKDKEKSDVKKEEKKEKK
UniProt P52306: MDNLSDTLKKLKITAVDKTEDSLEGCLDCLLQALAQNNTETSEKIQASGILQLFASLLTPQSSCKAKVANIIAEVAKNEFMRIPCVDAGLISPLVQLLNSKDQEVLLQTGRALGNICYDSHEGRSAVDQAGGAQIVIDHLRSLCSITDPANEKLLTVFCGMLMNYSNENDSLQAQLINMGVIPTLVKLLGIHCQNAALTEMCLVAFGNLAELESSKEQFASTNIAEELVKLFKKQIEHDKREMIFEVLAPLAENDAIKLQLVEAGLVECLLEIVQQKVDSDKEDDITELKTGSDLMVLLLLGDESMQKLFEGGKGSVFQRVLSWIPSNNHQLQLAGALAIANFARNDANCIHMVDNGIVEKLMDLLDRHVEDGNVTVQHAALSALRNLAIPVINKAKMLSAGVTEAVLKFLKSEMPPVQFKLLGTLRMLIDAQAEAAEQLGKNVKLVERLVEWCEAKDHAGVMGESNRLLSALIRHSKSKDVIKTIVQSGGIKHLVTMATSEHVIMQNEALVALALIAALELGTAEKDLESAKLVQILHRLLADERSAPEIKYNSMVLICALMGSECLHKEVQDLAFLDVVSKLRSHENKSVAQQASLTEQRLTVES
UniProt P61968: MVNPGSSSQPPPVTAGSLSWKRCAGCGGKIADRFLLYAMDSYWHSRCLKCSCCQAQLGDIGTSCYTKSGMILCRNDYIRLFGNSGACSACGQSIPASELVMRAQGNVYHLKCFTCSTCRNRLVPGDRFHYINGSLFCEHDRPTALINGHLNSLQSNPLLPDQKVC
UniProt P55039: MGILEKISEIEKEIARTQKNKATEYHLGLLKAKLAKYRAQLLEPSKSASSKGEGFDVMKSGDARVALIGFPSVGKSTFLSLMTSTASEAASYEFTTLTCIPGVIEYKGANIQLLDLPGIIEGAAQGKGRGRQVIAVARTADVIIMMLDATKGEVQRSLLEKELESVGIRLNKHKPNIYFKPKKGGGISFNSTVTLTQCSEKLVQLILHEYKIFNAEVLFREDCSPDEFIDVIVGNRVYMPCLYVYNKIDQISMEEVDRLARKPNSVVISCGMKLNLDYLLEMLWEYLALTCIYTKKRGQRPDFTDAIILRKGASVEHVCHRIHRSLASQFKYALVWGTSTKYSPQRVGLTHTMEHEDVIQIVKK
UniProt P60891: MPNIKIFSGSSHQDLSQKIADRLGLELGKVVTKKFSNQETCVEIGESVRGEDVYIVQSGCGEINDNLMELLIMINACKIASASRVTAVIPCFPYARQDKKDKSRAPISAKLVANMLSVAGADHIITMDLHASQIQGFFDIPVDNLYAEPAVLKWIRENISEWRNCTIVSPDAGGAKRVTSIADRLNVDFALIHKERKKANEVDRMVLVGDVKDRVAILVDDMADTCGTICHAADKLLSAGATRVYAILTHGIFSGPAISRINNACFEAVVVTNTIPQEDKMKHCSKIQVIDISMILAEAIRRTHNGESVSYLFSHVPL
UniProt P63279, whole entry: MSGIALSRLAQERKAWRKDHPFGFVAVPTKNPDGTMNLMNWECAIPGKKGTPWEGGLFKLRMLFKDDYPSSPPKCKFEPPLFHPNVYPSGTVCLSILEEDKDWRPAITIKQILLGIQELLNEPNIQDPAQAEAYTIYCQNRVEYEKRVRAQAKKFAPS
UniProt P78346: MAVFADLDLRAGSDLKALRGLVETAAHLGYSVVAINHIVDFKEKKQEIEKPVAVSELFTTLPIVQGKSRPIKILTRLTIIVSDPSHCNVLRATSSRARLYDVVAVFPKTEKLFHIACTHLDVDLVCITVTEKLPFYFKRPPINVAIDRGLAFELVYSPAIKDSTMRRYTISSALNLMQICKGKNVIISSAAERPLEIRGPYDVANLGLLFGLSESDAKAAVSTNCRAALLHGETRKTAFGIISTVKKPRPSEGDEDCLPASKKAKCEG
UniProt P50995, whole entry: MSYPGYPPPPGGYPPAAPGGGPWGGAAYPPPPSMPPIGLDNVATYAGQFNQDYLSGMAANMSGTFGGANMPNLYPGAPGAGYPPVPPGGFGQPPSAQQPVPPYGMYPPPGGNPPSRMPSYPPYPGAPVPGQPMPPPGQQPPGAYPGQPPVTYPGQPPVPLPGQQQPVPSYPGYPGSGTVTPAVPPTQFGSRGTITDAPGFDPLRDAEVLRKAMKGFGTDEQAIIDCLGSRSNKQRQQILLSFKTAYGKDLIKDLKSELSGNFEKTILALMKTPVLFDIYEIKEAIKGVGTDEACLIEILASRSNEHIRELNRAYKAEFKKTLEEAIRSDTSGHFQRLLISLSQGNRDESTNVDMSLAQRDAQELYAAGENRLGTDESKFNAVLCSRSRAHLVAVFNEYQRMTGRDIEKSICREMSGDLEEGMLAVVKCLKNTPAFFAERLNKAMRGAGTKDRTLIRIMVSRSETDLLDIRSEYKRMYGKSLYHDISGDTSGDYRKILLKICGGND
UniProt P51580: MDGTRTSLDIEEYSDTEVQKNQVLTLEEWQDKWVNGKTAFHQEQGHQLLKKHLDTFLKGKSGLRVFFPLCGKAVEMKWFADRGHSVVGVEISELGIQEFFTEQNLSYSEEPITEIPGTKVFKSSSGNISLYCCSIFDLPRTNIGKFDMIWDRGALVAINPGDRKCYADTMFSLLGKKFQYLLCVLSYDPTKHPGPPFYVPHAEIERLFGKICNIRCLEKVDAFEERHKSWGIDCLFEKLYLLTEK
UniProt Q00325: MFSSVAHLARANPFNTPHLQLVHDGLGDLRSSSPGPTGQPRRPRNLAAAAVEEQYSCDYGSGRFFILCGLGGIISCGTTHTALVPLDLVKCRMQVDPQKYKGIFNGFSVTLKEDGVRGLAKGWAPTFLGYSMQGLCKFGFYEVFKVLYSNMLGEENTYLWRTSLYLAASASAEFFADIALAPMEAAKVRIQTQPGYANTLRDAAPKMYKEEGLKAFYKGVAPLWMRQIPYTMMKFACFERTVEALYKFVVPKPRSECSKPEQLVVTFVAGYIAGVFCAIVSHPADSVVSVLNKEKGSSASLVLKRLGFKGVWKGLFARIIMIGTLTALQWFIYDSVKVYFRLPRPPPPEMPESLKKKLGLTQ
UniProt P56559: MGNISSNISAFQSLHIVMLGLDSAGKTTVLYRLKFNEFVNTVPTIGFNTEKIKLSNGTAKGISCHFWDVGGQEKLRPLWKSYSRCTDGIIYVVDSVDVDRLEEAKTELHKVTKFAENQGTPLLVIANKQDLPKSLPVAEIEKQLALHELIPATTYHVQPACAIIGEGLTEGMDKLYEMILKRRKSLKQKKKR
UniProt P62318, whole entry: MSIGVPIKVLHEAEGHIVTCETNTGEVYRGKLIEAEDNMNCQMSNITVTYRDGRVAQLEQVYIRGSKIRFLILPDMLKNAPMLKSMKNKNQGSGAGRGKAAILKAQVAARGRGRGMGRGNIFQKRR
UniProt P50452: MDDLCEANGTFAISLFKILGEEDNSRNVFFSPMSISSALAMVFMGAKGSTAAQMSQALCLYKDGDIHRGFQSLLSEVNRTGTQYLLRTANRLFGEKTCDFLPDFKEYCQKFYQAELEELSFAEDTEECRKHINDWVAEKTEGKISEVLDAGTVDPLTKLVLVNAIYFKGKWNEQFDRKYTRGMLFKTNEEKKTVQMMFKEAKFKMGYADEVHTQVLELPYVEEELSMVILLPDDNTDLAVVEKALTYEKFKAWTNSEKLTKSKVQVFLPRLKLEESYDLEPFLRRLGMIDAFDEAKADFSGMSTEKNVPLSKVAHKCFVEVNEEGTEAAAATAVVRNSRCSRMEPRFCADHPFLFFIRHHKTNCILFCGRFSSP
UniProt P98179: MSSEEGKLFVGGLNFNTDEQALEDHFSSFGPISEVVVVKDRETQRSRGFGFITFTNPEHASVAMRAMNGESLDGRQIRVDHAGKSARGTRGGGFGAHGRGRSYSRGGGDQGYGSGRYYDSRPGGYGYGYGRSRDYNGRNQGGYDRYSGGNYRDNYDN

These targets were tested with Nc1nc2c(ncn2[C@@H]2O[C@H](COP(=O)(O)OP(=O)(O)OP(=O)(O)O)[C@@H](O)[C@H]2O)c(=O)[nH]1 [guanosine triphosphate] (assay: NP40-soluble protein abundance relative to vehicle (solubility fold change) (ratio); higher = more soluble protein in presence of GTP). Conditions: concentration: 6mM.
In short: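 Jurkat crude lysate prepared with a Dounce homogeniser was treated at eight concentrations spanning 0.1 to 10 mM, 10 min at room temperature then 3 min at 37 °C. Solubilisation with 0.8% NP40 and benzonase and ultracentrifugation preceded TMT labelling of the supernatant for LC-MS/MS. Fold change against the detergent-processed vehicle was determined per replicate from vsn-normalised intensities, across three independent experiments.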

Target	NP40-soluble protein abundance
UniProt P56159 and related entries	0.994 ± 0.089
MAT1A (UniProt Q00266)	0.963 ± 0.075
UniProt P53621 and related entries	1.03 ± 0.15
RPL7A (UniProt P62424)	0.793 ± 0.1
KPNA2 (UniProt P52292)	1.032 ± 0.0091
UniProt P53367 and related entries	0.953 ± 0.069
GTF2B (UniProt Q00403)	0.977 ± 0.028
MVD (UniProt P53602)	0.917 ± 0.064
UniProt P60520	0.892 ± 0.056
STAT5B (UniProt P51692)	0.944 ± 0.059
KIF11 (UniProt P52732)	0.963 ± 0.02
PSMD7 (UniProt P51665)	1.06 ± 0.13
RASSF2 (UniProt P50749)	0.942 ± 0.051
CAPZA1 (UniProt P52907)	0.924 ± 0.094
UniProt P52306 and related entries	0.897 ± 0.02
UniProt P61978-2|P61978-3|Q5T6W2	0.919 ± 0.061
LMO4 (UniProt P61968)	1.02 ± 0.13
UniProt P55039 and related entries	0.905 ± 0.054
UniProt P60891	1.3 ± 0.28

Target	NP40-soluble protein abundance
UniProt P63279 and related entries	0.971 ± 0.077
UniProt P61024 and related entries	0.97 ± 0.11
UniProt P50750 and related entries	1.4 ± 0.11
UniProt P54687 and related entries	0.896 ± 0.059
UniProt P56270-2	0.966 ± 0.081
UniProt P63244 and related entries	0.798 ± 0.17
RAB8A (UniProt P61006)	0.858 ± 0.085
UniProt P78346 and related entries	1.15 ± 0.18
UniProt P50995 and related entries	0.893 ± 0.1
UniProt P63000 and related entries	0.966 ± 0.088
TPMT (UniProt P51580)	0.894 ± 0.081
UniProt Q00325 and related entries	0.924 ± 0.089
UniProt P62805	1.22 ± 0.054
UniProt P56559 and related entries	1.51 ± 0.17
UniProt P53990 and related entries	0.911 ± 0.07
UniProt P62318 and related entries	1.33 ± 0.057
UniProt P78310-5|P78310 and related entries	0.945 ± 0.17
SERPINB8 (UniProt P50452)	0.897 ± 0.03
RBM3 (UniProt P98179)	1.06 ± 0.06

Same assay, conditions: concentration: 8mM

Target	NP40-soluble protein abundance
UniProt P56159 and related entries	0.938 ± 0.1
MAT1A (UniProt Q00266)	0.981 ± 0.063
UniProt P53621 and related entries	0.978 ± 0.055
RPL7A (UniProt P62424)	0.747 ± 0.12
KPNA2 (UniProt P52292)	1.051 ± 0.0056
UniProt P53367 and related entries	0.925 ± 0.047
GTF2B (UniProt Q00403)	0.994 ± 0.01
MVD (UniProt P53602)	0.905 ± 0.027
UniProt P60520	0.852 ± 0.052
STAT5B (UniProt P51692)	0.914 ± 0.037
KIF11 (UniProt P52732)	0.976 ± 0.015
PSMD7 (UniProt P51665)	1.01 ± 0.1
RASSF2 (UniProt P50749)	0.97 ± 0.094
CAPZA1 (UniProt P52907)	0.912 ± 0.077
UniProt P52306 and related entries	0.889 ± 0.022
UniProt P61978-2|P61978-3|Q5T6W2	0.919 ± 0.049
LMO4 (UniProt P61968)	0.953 ± 0.082
UniProt P55039 and related entries	0.874 ± 0.054
UniProt P60891	1.28 ± 0.27

Target	NP40-soluble protein abundance
UniProt P63279 and related entries	0.983 ± 0.13
UniProt P61024 and related entries	1.03 ± 0.032
UniProt P50750 and related entries	1.47 ± 0.06
UniProt P54687 and related entries	0.891 ± 0.029
UniProt P56270-2	1.02 ± 0.037
UniProt P63244 and related entries	0.708 ± 0.096
RAB8A (UniProt P61006)	0.828 ± 0.046
UniProt P78346 and related entries	1.17 ± 0.15
UniProt P50995 and related entries	0.89 ± 0.087
UniProt P63000 and related entries	1 ± 0.1
TPMT (UniProt P51580)	0.87 ± 0.066
UniProt Q00325 and related entries	0.858 ± 0.032
UniProt P62805	1.2 ± 0.067
UniProt P56559 and related entries	1.51 ± 0.27
UniProt P53990 and related entries	0.867 ± 0.085
UniProt P62318 and related entries	1.55 ± 0.3
UniProt P78310-5|P78310 and related entries	0.96 ± 0.053
SERPINB8 (UniProt P50452)	0.856 ± 0.033
RBM3 (UniProt P98179)	1.1 ± 0.033

Same assay, conditions: concentration: 10mM

Target	NP40-soluble protein abundance
UniProt P56159 and related entries	0.982 ± 0.056
MAT1A (UniProt Q00266)	0.937 ± 0.1
UniProt P53621 and related entries	0.971 ± 0.084
RPL7A (UniProt P62424)	0.878 ± 0.14
KPNA2 (UniProt P52292)	1.03 ± 0.038
UniProt P53367 and related entries	0.898 ± 0.038
GTF2B (UniProt Q00403)	0.986 ± 0.026
MVD (UniProt P53602)	0.868 ± 0.042
UniProt P60520	0.863 ± 0.073
STAT5B (UniProt P51692)	0.89 ± 0.056
KIF11 (UniProt P52732)	0.937 ± 0.021
PSMD7 (UniProt P51665)	0.965 ± 0.11
RASSF2 (UniProt P50749)	0.929 ± 0.12
CAPZA1 (UniProt P52907)	0.904 ± 0.093
UniProt P52306 and related entries	0.874 ± 0.035
UniProt P61978-2|P61978-3|Q5T6W2	0.897 ± 0.049
LMO4 (UniProt P61968)	1.01 ± 0.24
UniProt P55039 and related entries	0.849 ± 0.11
UniProt P60891	1.26 ± 0.23

Target	NP40-soluble protein abundance
UniProt P63279 and related entries	1.06 ± 0.16
UniProt P61024 and related entries	0.96 ± 0.07
UniProt P50750 and related entries	1.54 ± 0.097
UniProt P54687 and related entries	0.888 ± 0.069
UniProt P56270-2	1.07 ± 0.075
UniProt P63244 and related entries	0.737 ± 0.14
RAB8A (UniProt P61006)	0.81 ± 0.075
UniProt P78346 and related entries	1.13 ± 0.16
UniProt P50995 and related entries	0.9 ± 0.097
UniProt P63000 and related entries	1.09 ± 0.07
TPMT (UniProt P51580)	0.832 ± 0.1
UniProt Q00325 and related entries	0.861 ± 0.074
UniProt P62805	1.76 ± 0.14
UniProt P56559 and related entries	1.45 ± 0.3
UniProt P53990 and related entries	0.884 ± 0.069
UniProt P62318 and related entries	1.39 ± 0.11
UniProt P78310-5|P78310 and related entries	0.962 ± 0.17
SERPINB8 (UniProt P50452)	0.843 ± 0.066
RBM3 (UniProt P98179)	1.13 ± 0.051
